From patent US20240415791A1, “Therapeutic methods and compositions for treating cancer using devimistat and a fatty acid oxidation inhibitor, a tyrosine kinase inhibitor, a glutaminase inhibitor, and/or a glycolysis inhibitor” (Cornerstone Pharmaceuticals, Inc., priority 2021, published 2024)
For at least one compound, name, drawing or mass did not settle the structure.

How the values were obtained:
AsPC1 cells [1] = assay: Acute ATP synthesis rescue by exogenous carbon sources in AsPC1 cells treated with devimistat and GPi; type: cell-based, human; conditions: 60 μM devimistat, 50 μM oleic acid
AsPC1 cells [2] = assay: Devimistat-induced cell death (ATP after recovery) in AsPC1 cells; type: cell-based, human
Procedure: Cells were plated at 80% confluency in complete RPMI in black, clear bottom 96-well plates or 35-mm dishes for ATP, protein and glycogen analysis, or glass coverslips for fluorescence visualization. […] Prior to drug treatment, cells were incubated in a nutrient-free carbonate buffered salt solution (CBS2) for 3 hours. Drug treatments were then carried out in CBS2 with addition of nutrient sources and/or chemical agents as described in the Examples and Figures.
LOGIC: High throughput, plate reader assays for cell death essentially always ultimately depend on metabolic activity of cells to identify viability, directly or indirectly. […] RPMI provides high levels of glucose in support of glycolytic ATP generation (independently of mitochondrial function), allowing viable cells to recover ATP levels that are ultimately measured in the plate assay to score cell viability.
Survival is assessed by conventional luminescence measurement of ATP levels after this recovery.
TECHNICAL DETAILS: Immediately after drug treatments, acute ATP levels of cells in black, clear bottom 96-well plates were measured using the CellTiter-Glo® Luminescent Cell Viability Assay (catalog #G775B) following Promega (Madison, WI) protocols. […] After this recovery period ATP levels were measured using the CellTiter-Glo® Luminescent Cell Viability Assay as described above. […]

Cc1[nH]c(/C=C2\C(=O)Nc3ccc(S(=O)(=O)Cc4c(Cl)cccc4Cl)cc32)c(C)c1C(=O)N1CCC[C@@H]1CN1CCCC1 [PHA-665752, (2R)-1-[[5-[(Z)-[5-[[(2,6-Dichlorophenyl)methyl]sulfonyl]-1,2-dihydro-2-oxo-3H-indol-3-ylidene]methyl]-2,4-dimethyl-1H-pyrrol-3-yl]carbonyl]-2-(1-pyrrolidinylmethyl)pyrrolidine]
inhibition of oleic acid (OA)-driven acute ATP synthesis / OA rescue (AsPC1 cells [1]; AsPC1, 50 μM GPi): robust inhibition | OA rescue blockade (AsPC1 cells [1]; acute ATP synthesis, 50 μM GPi): Yes | sensitization to devimistat-induced cell death, agent combined with devimistat (AsPC1 cells [2]; AsPC1, nutrient-free CBS2, treatment followed by recovery in serum-free RPMI): robustly sensitize | Devimistat synergy (AsPC1 cells [2]; devimistat-induced cell death, no exogenous carbon, 15 hours treatment then recovery): Yes
